Results reported in publication PMC4345284.

Target: STAG2/SA-2 (chicken (endogenous in DT40))
Experiment: cross-linking; in situ: isolated mitotic chromosomes of wild-type DT40 cross-linked with 30-fold weight excess of BS3, 2 h on ice; micrococcal nuclease, 2 M NaCl extraction (scaffold fraction), SDS-PAGE, SCX, targeted mass spectrometry with an inclusion list

B1: CENP-M (protein, UniProt Q1T7B9 1-177)
chain: MAVLRPFDKLPELNSATILLVGAEGGPQQQLAEAMLREKKDFNINIHLASSLPLPSERDHLRPRIDLIAFVIDIKSKYSLKNVQASLAYVDVRFFLGKVCFLVTGVGRANNCSVEMNAIWKLGEDYCSPVIFCELELEGIRVATAQRLLRMLQICAGRVPGVSALYFSLLMRNSAGD
binding: binds

Results are given in words; binding and its absence hold for the method and conditions named. In cells and extracts the contact can be indirect. Binding calls can cover weak binding; strength is not graded here.
